{"source": "patent US9709557B2", "about": "“Anthraquinone based near IR emitting compounds and uses thereof” (LIFE TECHNOLOGIES CORPORATION, priority 2008, dated 2017)", "system": "THP-1 monocytic cells", "experiment": "Imaging of nuclear proteins: NF-kB nuclear translocation with nuclear counterstain (Example 40)", "format": "cell-based", "data": [{"compound": "CN(C)CCNC(=O)CNc1ccc(O)c2c1C(=O)c1c(O)ccc(N)c1C2=O", "note": "[Compound 9]", "values": [{"measurement": "similarity score (NF-kB nuclear translocation, untreated vs LPS)", "setting": "0.1% TRITON X-100 permeabilization buffer", "value": 2.10}, {"measurement": "similarity score (NF-kB nuclear translocation, untreated vs LPS)", "setting": "0.1% saponin permeabilization buffer (negative control)", "value": 0.04}, {"measurement": "similarity score (NF-kB nuclear translocation, untreated vs LPS)", "setting": "0.25% TRITON X-100 permeabilization buffer", "value": 2.00}, {"measurement": "similarity score (NF-kB nuclear translocation, untreated vs LPS)", "setting": "methanol/0.1% TRITON X-100 permeabilization buffer", "value": 2.26}]}]}
